Source: patent US6043284A, “Anti-atherosclerotic diaryl compounds” (Glaxo Wellcome Inc., priority 1993, dated 2000)
Some results were stated once for a whole list of compounds, not compound by compound.

Target: T1, ACAT (Homo sapiens, UniProt P35610)
T1 construct: Microsomal protein is therefore used as the source of both ACAT and cholesterol; endogenous in cells; host or cells: microsomal protein of human embryo 407 intestinal epithelial cell line (Intestine 407)
T1 sequence (P35610 1-550): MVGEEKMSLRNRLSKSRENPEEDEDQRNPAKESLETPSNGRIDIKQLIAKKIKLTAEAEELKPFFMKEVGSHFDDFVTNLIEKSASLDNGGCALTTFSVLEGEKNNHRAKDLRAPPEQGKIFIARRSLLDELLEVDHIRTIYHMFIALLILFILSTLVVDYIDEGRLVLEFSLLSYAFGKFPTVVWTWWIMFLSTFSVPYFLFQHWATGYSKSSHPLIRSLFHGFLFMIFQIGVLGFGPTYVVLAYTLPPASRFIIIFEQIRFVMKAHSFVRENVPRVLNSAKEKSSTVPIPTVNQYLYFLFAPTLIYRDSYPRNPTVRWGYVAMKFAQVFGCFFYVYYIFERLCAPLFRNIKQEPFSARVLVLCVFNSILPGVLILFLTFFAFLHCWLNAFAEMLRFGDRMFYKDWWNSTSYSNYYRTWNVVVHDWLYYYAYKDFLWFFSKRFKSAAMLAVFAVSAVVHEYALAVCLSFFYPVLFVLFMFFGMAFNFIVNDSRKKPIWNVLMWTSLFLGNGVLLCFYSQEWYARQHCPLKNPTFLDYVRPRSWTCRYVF
Test: In vitro inhibition of ACAT (radiometric, [^14 C]oleoyl CoA, microsomal protein)
Type: biochemical, human (human embryo 407 intestinal epithelial cell line)
Settings: microsomal enzyme, 37° C., pH 7.0, 4 minutes

SMILES	IC50
CC(C)(C)C(=O)Nc1c(F)cc(F)cc1Oc1ccc(C2CC(=O)NC(=O)C2)cc1 [Example 1]	< 10 µM
CC(C)(C)C(=O)Nc1c(F)cccc1Oc1ccc(OC(F)(F)F)cc1 [Example 2, N-[2-Fluoro-6-(4-trifluoromethoxyphenoxy)phenyl]pivalamide]	< 10 µM
CC(C)(C)C(=O)Nc1c(F)cc(F)cc1Oc1ccc(C(C)(C)C(N)=O)cc1 [Example 3]	< 10 µM
CC(C)(C)C(=O)Nc1c(F)cc(F)cc1C#Cc1ccc(C2CC(=O)NC(=O)C2)cc1 [Example 5, N-{2,4-Difluoro-6-[4-(2,6-dioxo-4-piperidinyl)phenyiethynyl]phenyl}pivalamide]	< 10 µM
COC1(c2ccc(C#Cc3cc(F)cc(F)c3NC(=O)C(C)(C)C)cc2)CCOCC1 [Example 6, N-{2,4-Difluoro-6-[4-(4-methoxytetrahydropyran-4-yl)phenylethynyl]phenyl}-pivalamide]	< 10 µM
CC(C)(C)C(=O)Nc1c(F)cc(F)cc1C#Cc1ccc(SC2CCOCC2)cc1 [Example 7]	< 10 µM
CC(C)(C)C(=O)Nc1c(F)cc(F)cc1C#Cc1ccc(OC(C)(C)C(N)=O)cc1 [Example 8, N-{6-[4-(1-Carbamoyl-1-methylethoxy)phenylethynyl]-2,4-difluoro-phenyl}pivalamide]	< 10 µM
CC(C)(C)C(=O)Nc1c(F)cc(F)cc1C#Cc1ccc(C(C)(C)C(N)=O)cc1 [Example 9, N-{6-[4-(1-Carbamovl-1-methylethyl)phenylethynyl]-2,4difluoro-phenyl}pivalamide]	< 10 µM
COC1(c2ccc(/C=C/c3cc(F)cc(F)c3NC(=O)C(C)(C)C)cc2)CCOCC1 [Example 10, trans-N-(2,4-Difluoro-6-{2-[4-(4-methoxytetrahydropyran-4-yl)phenyl]-ethenyl}phenyl)pivalamide]	< 10 µM
